Data published in the supplement of paper PMC12823440, “Inhibitors supercharge kinase turnover through native proteolytic circuits” (Nature, 2025).
Where a name gives a salt, the structure may show the parent alone. Some of the results follow. Hit calls seldom repeat between salt and free forms of one compound.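 Kinases were expressed as nanoluciferase fusions in K562 cells and luminescence was read every 4 h between 2 and 18 h as percent of control, DMSO set to 100% and a positive control to 0%. A time point counts as decreased when the signal drops significantly (2 sigma). The hit call is the authors' own, does not follow from the count of time points alone, and its rule is not shown.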

The chains behind the UniProt entries cited, without tags or fusion partners. Where a name states a change or a piece, a line headed by the entry shows the natural chain unless it says otherwise.
UniProt P31749: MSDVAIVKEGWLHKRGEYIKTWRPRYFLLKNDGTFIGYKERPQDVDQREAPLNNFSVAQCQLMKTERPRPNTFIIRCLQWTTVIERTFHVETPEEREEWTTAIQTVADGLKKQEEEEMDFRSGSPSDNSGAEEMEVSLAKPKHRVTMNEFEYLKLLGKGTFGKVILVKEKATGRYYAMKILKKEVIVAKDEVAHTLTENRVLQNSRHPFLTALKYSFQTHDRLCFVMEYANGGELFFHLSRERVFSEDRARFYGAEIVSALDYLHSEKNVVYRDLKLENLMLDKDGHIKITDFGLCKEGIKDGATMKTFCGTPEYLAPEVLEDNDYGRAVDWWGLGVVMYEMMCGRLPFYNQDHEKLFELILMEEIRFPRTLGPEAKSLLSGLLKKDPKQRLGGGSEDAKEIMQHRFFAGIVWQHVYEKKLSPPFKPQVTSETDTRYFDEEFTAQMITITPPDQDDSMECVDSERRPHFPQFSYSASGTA
UniProt P10398: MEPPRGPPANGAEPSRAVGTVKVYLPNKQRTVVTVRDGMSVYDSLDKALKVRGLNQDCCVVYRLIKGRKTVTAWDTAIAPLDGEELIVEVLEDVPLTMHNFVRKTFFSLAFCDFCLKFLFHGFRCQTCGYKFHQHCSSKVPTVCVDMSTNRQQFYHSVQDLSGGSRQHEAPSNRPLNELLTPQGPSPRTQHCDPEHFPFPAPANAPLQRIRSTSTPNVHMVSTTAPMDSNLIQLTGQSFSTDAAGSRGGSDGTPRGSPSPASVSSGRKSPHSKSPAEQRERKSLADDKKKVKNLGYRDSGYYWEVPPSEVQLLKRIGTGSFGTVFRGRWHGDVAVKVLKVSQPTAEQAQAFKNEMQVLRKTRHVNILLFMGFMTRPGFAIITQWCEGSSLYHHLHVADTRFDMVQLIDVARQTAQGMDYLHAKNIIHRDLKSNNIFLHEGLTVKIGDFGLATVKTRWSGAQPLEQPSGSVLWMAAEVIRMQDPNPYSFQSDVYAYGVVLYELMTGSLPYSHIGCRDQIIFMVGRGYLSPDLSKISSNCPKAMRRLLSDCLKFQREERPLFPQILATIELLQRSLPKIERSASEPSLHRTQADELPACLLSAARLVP
UniProt Q96GD4, whole entry: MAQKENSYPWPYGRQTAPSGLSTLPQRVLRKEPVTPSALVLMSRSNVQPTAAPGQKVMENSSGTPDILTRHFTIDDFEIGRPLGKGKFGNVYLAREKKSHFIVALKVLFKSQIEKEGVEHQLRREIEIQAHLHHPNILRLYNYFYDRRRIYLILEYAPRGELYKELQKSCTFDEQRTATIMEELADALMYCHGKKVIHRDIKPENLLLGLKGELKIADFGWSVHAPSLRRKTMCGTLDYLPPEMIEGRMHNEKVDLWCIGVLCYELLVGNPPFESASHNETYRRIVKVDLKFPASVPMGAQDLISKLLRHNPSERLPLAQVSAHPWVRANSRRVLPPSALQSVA
UniProt Q9UQB9: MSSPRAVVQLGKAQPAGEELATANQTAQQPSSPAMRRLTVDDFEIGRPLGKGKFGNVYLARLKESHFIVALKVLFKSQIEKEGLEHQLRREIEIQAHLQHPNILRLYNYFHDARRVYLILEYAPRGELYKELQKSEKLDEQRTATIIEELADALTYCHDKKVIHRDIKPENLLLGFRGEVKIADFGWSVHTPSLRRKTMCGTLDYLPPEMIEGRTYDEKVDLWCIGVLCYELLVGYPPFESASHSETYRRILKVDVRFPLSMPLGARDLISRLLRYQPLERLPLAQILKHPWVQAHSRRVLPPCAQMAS
UniProt P51451: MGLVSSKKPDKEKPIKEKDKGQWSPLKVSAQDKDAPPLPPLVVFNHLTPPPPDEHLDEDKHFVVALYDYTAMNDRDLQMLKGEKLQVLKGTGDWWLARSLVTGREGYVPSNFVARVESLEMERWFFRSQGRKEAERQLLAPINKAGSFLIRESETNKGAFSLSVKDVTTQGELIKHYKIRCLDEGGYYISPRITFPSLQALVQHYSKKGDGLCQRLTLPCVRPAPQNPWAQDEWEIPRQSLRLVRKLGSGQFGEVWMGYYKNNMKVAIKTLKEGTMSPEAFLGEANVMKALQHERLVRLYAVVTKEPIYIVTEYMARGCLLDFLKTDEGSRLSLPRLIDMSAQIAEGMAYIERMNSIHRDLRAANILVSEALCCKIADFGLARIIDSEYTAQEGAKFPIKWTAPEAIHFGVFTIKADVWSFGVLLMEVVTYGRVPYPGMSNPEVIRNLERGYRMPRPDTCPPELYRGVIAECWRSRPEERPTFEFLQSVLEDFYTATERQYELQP
UniProt Q9UQM7, whole entry: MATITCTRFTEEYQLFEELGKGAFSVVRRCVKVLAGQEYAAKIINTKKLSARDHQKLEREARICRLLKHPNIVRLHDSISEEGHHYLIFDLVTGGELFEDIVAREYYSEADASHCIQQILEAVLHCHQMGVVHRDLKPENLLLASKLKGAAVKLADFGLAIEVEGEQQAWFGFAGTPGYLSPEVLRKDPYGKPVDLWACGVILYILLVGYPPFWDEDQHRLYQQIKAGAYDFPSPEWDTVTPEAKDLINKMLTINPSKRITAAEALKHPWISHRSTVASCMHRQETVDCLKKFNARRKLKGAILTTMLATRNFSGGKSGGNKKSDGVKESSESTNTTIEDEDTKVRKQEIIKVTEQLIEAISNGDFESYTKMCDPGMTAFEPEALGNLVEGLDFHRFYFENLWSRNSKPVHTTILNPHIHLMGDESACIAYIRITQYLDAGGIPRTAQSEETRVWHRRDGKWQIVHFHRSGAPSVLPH
UniProt Q13555: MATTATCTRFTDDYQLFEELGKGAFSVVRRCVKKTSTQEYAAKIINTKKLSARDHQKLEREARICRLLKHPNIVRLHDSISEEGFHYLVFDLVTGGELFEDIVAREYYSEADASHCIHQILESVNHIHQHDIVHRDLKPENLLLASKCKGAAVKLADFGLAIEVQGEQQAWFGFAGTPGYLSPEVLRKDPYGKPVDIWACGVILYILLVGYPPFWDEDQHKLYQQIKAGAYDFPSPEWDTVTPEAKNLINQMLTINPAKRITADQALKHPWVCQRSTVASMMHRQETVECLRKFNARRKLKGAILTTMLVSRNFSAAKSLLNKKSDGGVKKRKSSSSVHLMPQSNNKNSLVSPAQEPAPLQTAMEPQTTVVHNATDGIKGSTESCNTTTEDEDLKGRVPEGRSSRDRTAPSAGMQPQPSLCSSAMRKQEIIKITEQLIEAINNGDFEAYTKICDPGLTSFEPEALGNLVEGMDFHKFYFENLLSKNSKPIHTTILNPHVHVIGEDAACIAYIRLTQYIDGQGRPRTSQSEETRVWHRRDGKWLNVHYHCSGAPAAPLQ
UniProt Q15131: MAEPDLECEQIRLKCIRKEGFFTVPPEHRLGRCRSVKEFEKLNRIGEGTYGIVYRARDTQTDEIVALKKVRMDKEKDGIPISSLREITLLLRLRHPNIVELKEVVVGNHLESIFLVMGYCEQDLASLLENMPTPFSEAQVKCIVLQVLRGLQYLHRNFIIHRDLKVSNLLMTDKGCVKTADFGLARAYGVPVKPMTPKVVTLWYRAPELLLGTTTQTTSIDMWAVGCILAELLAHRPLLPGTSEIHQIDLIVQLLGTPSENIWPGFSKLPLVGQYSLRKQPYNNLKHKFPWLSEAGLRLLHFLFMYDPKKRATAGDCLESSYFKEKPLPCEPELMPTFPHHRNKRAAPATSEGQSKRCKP
UniProt Q00526: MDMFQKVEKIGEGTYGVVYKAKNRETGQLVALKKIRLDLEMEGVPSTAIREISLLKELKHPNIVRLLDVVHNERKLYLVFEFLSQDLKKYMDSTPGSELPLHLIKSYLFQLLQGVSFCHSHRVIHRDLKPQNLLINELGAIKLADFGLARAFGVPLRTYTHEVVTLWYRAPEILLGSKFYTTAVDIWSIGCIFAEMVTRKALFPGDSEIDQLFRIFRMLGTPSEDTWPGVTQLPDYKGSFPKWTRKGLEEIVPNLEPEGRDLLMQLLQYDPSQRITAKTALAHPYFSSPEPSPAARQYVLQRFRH
UniProt P11802: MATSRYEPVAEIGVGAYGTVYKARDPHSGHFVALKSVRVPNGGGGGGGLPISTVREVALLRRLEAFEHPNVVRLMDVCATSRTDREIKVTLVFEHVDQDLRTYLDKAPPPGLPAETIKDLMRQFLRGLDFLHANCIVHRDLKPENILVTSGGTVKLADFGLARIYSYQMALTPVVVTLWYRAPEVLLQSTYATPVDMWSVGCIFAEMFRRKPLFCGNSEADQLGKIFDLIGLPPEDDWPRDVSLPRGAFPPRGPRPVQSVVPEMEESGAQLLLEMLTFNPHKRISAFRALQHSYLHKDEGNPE
UniProt Q00535, whole entry, looked up: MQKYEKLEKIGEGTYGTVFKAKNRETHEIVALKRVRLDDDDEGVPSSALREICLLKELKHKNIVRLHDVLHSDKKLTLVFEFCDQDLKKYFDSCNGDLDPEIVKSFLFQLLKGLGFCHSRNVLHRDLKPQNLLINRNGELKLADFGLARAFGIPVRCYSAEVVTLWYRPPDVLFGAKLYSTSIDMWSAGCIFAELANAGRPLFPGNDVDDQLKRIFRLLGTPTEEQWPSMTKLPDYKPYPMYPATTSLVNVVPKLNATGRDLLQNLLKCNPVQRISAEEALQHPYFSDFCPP
UniProt Q00534, whole entry: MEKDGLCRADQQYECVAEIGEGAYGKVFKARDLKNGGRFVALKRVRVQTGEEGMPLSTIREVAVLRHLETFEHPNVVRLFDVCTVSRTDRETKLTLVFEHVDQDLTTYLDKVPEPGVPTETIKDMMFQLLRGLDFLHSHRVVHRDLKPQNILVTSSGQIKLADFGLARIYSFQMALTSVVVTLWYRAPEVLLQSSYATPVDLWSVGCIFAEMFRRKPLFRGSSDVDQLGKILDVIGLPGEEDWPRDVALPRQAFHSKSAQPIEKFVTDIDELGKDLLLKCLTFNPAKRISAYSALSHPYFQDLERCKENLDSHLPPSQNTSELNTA
UniProt P51813: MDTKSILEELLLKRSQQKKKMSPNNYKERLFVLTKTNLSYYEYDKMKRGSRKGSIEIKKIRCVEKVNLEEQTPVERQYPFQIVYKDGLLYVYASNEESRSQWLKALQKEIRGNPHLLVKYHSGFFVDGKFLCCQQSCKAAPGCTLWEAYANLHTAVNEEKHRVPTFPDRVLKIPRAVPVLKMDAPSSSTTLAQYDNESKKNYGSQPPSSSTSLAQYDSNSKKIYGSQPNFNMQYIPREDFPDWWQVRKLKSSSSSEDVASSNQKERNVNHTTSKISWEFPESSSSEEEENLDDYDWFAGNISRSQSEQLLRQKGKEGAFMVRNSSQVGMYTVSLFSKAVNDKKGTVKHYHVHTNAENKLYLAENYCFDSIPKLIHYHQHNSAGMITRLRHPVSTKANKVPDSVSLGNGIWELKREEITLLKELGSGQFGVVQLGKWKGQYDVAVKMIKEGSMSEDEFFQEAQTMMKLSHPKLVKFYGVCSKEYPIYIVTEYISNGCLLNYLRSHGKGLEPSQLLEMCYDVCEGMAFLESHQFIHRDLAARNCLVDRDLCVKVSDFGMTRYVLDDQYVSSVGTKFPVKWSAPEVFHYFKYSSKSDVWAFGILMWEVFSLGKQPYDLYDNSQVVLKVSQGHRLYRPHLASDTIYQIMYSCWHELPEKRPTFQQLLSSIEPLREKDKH
UniProt Q06187: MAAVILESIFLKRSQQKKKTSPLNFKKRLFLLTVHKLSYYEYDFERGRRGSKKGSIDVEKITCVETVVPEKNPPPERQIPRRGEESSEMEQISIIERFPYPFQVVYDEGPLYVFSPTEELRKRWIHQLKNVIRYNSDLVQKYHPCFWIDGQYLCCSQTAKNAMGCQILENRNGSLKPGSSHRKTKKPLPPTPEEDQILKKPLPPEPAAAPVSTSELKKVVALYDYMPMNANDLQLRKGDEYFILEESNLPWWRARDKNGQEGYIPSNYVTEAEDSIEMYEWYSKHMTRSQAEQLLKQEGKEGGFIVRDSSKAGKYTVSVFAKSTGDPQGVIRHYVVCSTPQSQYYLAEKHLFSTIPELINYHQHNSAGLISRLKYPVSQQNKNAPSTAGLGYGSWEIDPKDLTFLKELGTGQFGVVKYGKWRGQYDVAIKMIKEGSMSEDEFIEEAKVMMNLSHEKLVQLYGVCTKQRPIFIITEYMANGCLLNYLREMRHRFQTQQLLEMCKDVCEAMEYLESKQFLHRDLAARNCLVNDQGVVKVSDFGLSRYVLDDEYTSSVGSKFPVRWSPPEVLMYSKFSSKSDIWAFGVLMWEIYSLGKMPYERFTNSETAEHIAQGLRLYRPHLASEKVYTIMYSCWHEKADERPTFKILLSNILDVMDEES

What was measured:
Assay in all cases: kinase-Nluc reporter destabilization hit call (1 = scored as downregulated) (binary); higher = compound decreases kinase abundance
Details in all cases: K562, 2-18 h
BRAF_V600E = system: BRAF_V600E
AKT1 = AKT1 (UniProt P31749)
ALK = ALK (UniProt Q9UM73)
ARAF = ARAF (UniProt P10398)
AURKA = AURKA (UniProt O14965)
AURKB = AURKB (UniProt Q96GD4)
AURKC = AURKC (UniProt Q9UQB9)
BLK = BLK (UniProt P51451)
CAMK2A = CAMK2A (UniProt Q9UQM7)
CAMK2G = CAMK2G (UniProt Q13555)
CDK10 = CDK10 (UniProt Q15131)
CDK2 = CDK2 (UniProt P24941)
CDK3 = CDK3 (UniProt Q00526)
CDK4 = CDK4 (UniProt P11802)
CDK5 = CDK5 (UniProt Q00535)
CDK6 = CDK6 (UniProt Q00534)
BMX = BMX (UniProt P51813)
BTK = BTK (UniProt Q06187)
BRAF = BRAF (UniProt P15056)

Measured: kinase-Nluc reporter destabilization hit call

O=C1NC(=O)c2c1c(-c1ccccc1)cc1[nH]c3ccc(O)cc3c21
inactive: BRAF_V600E; 2.5 µM 0

Cc1nc(Nc2ncc(C(=O)Nc3c(C)cccc3Cl)s2)cc(N2CCN(CCO)CC2)n1 [Dasatinib]
inactive: AKT1; 2.5 µM 0 | ALK; 2.5 µM 0 | ARAF; 2.5 µM 0 | AURKA; 2.5 µM 0 | AURKB; 2.5 µM 0 | BLK; 2.5 µM 0 | BRAF_V600E; 2.5 µM 0 | CAMK2A; 2.5 µM 0 | CAMK2G; 2.5 µM 0 | CDK10; 2.5 µM 0 | CDK2; 2.5 µM 0 | CDK3; 2.5 µM 0 | CDK4; 2.5 µM 0 | CDK5; 2.5 µM 0 | CDK6; 2.5 µM 0
active: AURKC; 2.5 µM 1

CC1(C)CNc2cc(NC(=O)c3cccnc3NCc3ccncc3)ccc21 [Motesanib (Diphosphate)]
inactive: AKT1; 2.5 µM 0 | ALK; 2.5 µM 0 | ARAF; 2.5 µM 0 | AURKA; 2.5 µM 0 | AURKB; 2.5 µM 0 | AURKC; 2.5 µM 0 | BLK; 2.5 µM 0 | BMX; 2.5 µM 0 | BRAF_V600E; 2.5 µM 0 | BTK; 2.5 µM 0 | CAMK2A; 2.5 µM 0 | CAMK2G; 2.5 µM 0 | CDK10; 2.5 µM 0 | CDK2; 2.5 µM 0 | CDK3; 2.5 µM 0 | CDK4; 2.5 µM 0 | CDK5; 2.5 µM 0 | CDK6; 2.5 µM 0

C=CC(=O)Nc1cc2c(Nc3ccc(F)c(Cl)c3)ncnc2cc1OCCCN1CCOCC1 [Canertinib]
inactive: AKT1; 10 µM 0 | ALK; 10 µM 0 | ARAF; 10 µM 0 | AURKA; 10 µM 0 | AURKB; 10 µM 0 | AURKC; 10 µM 0 | BLK; 10 µM 0 | BRAF; 10 µM 0 | BRAF_V600E; 10 µM 0 | BTK; 10 µM 0 | CAMK2A; 10 µM 0 | CAMK2G; 10 µM 0 | CDK10; 10 µM 0 | CDK2; 10 µM 0 | CDK3; 10 µM 0 | CDK4; 10 µM 0 | CDK5; 10 µM 0 | CDK6; 10 µM 0

Cc1cc2ncnn2cc1Nc1ncc2c(n1)n(C1CCOCC1)c(=O)n2C
inactive: ARAF; 10 µM 0 | AURKC; 10 µM 0 | BMX; 10 µM 0 | BRAF; 10 µM 0 | BRAF_V600E; 10 µM 0 | BTK; 10 µM 0 | CAMK2A; 10 µM 0 | CDK10; 10 µM 0 | CDK2; 10 µM 0 | CDK3; 10 µM 0 | CDK4; 10 µM 0 | CDK5; 10 µM 0 | CDK6; 10 µM 0

CC(=O)c1c(C)c2cnc(Nc3ccc(N4CCN(C(=O)CCCCCC(=O)N[C@H](C(=O)N5C[C@H](O)C[C@H]5C(=O)NCc5ccc(-c6scnc6C)cc5)C(C)(C)C)CC4)cn3)nc2n(C2CCCC2)c1=O
inactive: ARAF; 2.5 µM 0 | AURKC; 2.5 µM 0 | BMX; 2.5 µM 0 | BRAF; 2.5 µM 0 | BRAF_V600E; 2.5 µM 0 | BTK; 2.5 µM 0 | CAMK2A; 2.5 µM 0 | CAMK2G; 2.5 µM 0 | CDK10; 2.5 µM 0 | CDK2; 2.5 µM 0 | CDK3; 2.5 µM 0 | CDK4; 2.5 µM 0 | CDK5; 2.5 µM 0 | CDK6; 2.5 µM 0

Reprinted from above (2 entries):
Cc1nc(Nc2ncc(C(=O)Nc3c(C)cccc3Cl)s2)cc(N2CCN(CCO)CC2)n1 [Dasatinib]
inactive: AKT1; 2.5 µM 0 | ALK; 2.5 µM 0 | ARAF; 2.5 µM 0 | AURKA; 2.5 µM 0 | AURKB; 2.5 µM 0 | BLK; 2.5 µM 0 | BRAF_V600E; 2.5 µM 0 | CAMK2A; 2.5 µM 0 | CAMK2G; 2.5 µM 0 | CDK10; 2.5 µM 0 | CDK2; 2.5 µM 0 | CDK3; 2.5 µM 0 | CDK4; 2.5 µM 0 | CDK5; 2.5 µM 0 | CDK6; 2.5 µM 0
active: AURKC; 2.5 µM 1

CC1(C)CNc2cc(NC(=O)c3cccnc3NCc3ccncc3)ccc21 [Motesanib (Diphosphate)]
inactive: AKT1; 2.5 µM 0 | ALK; 2.5 µM 0 | ARAF; 2.5 µM 0 | AURKA; 2.5 µM 0 | AURKB; 2.5 µM 0 | AURKC; 2.5 µM 0 | BLK; 2.5 µM 0 | BMX; 2.5 µM 0 | BRAF_V600E; 2.5 µM 0 | BTK; 2.5 µM 0 | CAMK2A; 2.5 µM 0 | CAMK2G; 2.5 µM 0 | CDK10; 2.5 µM 0 | CDK2; 2.5 µM 0 | CDK3; 2.5 µM 0 | CDK4; 2.5 µM 0 | CDK5; 2.5 µM 0 | CDK6; 2.5 µM 0

Remaining list, next part:

C[C@@H]1C[C@H](N)C[C@H](c2ccncc2NC(=O)c2ccc(F)c(-c3c(F)cccc3F)n2)C1 [PIM-447 (dihydrochloride)]
inactive: BRAF_V600E; 10 µM 0

O=S(=O)(c1cccc2c(O)nccc12)N1CCCNCC1 [Hydroxyfasudil]
inactive: AKT1; 10 µM 0 | ALK; 10 µM 0 | ARAF; 10 µM 0 | AURKA; 10 µM 0 | AURKB; 10 µM 0 | AURKC; 10 µM 0 | BLK; 10 µM 0 | BMX; 10 µM 0 | BRAF_V600E; 10 µM 0 | BTK; 10 µM 0 | CAMK2A; 10 µM 0 | CAMK2G; 10 µM 0 | CDK10; 10 µM 0 | CDK2; 10 µM 0 | CDK3; 10 µM 0 | CDK4; 10 µM 0 | CDK5; 10 µM 0 | CDK6; 10 µM 0

N[C@H]1CCCCNc2nc(ncc2C(=O)NCc2ccc(F)cc2)NCCCCCCNC1=O
inactive: BRAF_V600E; 10 µM 0

O=C(N[C@H]1CCc2cc(F)cc(F)c2NC1=O)c1n[nH]c(Cc2ccccc2)n1
inactive: BRAF_V600E; 10 µM 0
